Assay results

Source: PubChem BioAssay AID1159506 (NCATS, 2015).

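Genome-wide siRNA knockdown in TC32 Ewing sarcoma cells, comparing luciferase light from an NR0B1-promoter reporter with a CMV-promoter reporter 48 hours after transfection.
Each siRNA was applied at 20 nM.
A z-score of the log NR0B1-over-CMV signal, less the median of siRNAs with the same seed; more negative means a stronger specific loss of the NR0B1 reporter.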

The strongest results of the screen are mostly left out here.
Sequences are the guide (antisense) strand, without overhang.

| strand | target gene | seed-corrected z-score |
|---|---|---|
| `GCCUGUUUUGGAAGGUUUG` | FAM21FP | 1.374 |
| `UUAACAUAUGAGGUCGUUC` | SYDE2 | 1.212 |
| `UAAGACAUCAGAAUCCUUC` | MRGPRX2 | -0.04232 |
| `UAUAGUAUUGCUCUGUUCC` | PDZD11 | 0.4271 |
| `UCAGGUUCUGGUAGGUGCC` | ARHGEF10L | -1.616 |
| `UUAUCAACUUUGGUACUGG` | RB1 | -0.1357 |
| `UCUUGUUCCACGAAAGGGU` | NTNG2 | 1.102 |
| `UUUGUUUAAUCCGCUGACC` | HNRNPK | 1.618 |
| `UCUGAUCUAAGAUCAUAUC` | CCDC18 | 0.04139 |
| `UUACUAUCCUCUGGUCUUG` | NUP58 | -0.4719 |
| `AUACUCAUAGUCUUGGUAG` | PLP1 | -0.7874 |
| `UACUGGGUACACUUCGACC` | USP11 | 0.1553 |
| `AAAGUCAGCAUUGAUCAUG` | RHBG | -0.6474 |
| `UUACAAAUCUUGAAGCUGC` | C1D | 0.02278 |
| `UGUAUGUCUAUUUUCGAGG` | DPRX | -1.292 |
| `UCUGUACACCUGGACUACC` | RPL26L1 | 0.2464 |
| `UUCGUUUUAGUAGGAAGCU` | AGAP2 | 0.9925 |
| `UUUCAUGUUAAUCUUCAGC` | NTN1 | 0.05913 |
| `AACUUCUCCGUGUAGUUCU` | MMP15 | 0.07517 |
| `UCUCCUCUUCUUAAAAUCC` | ATG16L2 | -0.5753 |
| `UUUCUUCUAAGUCAGCAUC` | RFPL4B | 0.3244 |
| `AAAGUUGAAGAGUUCCACC` | PHOSPHO2 | 0.9511 |
| `UCCUUGACUCUUCUAAUGG` | DCAF6 | -0.306 |
| `CUCCGUACACCUCCCAUGU` | GPRIN2 | 0.5776 |
| `UUACAAAGGAUCAAAGCUG` | GPHA2 | 0.8183 |
| `UUUGGUGCAACGAUCAGCA` | DEFB114 | -1.511 |
| `UCUGUCACCUGUCAACUUC` | ARMT1 | -0.6909 |
| `UCCUUGACCAUACGAUGCC` | LAMA1 | -0.3563 |
| `UAGGAGAAAACAGACCUGC` | TCTA | 1.835 |
| `UCCAUUACUAUUGUUAAGG` | EXOSC8 | -0.6679 |
| `AUGUUUUUAGCUGCUUUAC` | COMMD5 | 1.106 |
| `UUUGAGGAUUCUGAUCACC` | CD40LG | 1.475 |
| `ACAGUCACCAGAGGUAACG` | SLC7A13 | 0.8143 |
| `UCUAUGUAGAGAUAGUGUC` | MALRD1 | 1.087 |
| `UUUGGGAUCCAAGAGAUAG` | ODF3L1 | -0.0009191 |
| `UCAUAUCCCUCAACCGGCC` | TRMT112 | 1.158 |
| `UCUUUAUUCAACGAUUUGC` | AGAP1 | -0.1953 |
| `UUGAGUAAAAGUCAAAUGC` | PBLD | -0.2763 |
| `UUGUAGAUAAACAUGGACG` | ENTPD2 | 0.6727 |
| `UCUCUUCUCAUCAAAUCUC` | MMP3 | -0.467 |
| `UUCCACUUCAGCACCACCG` | TSSC4 | 0.02986 |
| `UGAGUCAUGAUCAUCCACC` | ZC3HAV1 | -0.5705 |
| `UUCCUGCAGAGGUAAUGCC` | IP6K1 | -0.1232 |
| `UAUAGGUCAUUGCCUAAUC` | WDR78 | -0.7996 |
| `UCUACCUCAAUCCUCUUAG` | ZNF747 | -0.1511 |
| `AAAGUUAGAAAUUUGAUUG` | MEX3D | 0.4555 |

The last 3 entries again:

| strand | target gene | seed-corrected z-score |
|---|---|---|
| `UAUAGGUCAUUGCCUAAUC` | WDR78 | -0.7996 |
| `UCUACCUCAAUCCUCUUAG` | ZNF747 | -0.1511 |
| `AAAGUUAGAAAUUUGAUUG` | MEX3D | 0.4555 |